Data taken from PubChem BioAssay AID504749, deposited by NCATS (2011).

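A panel of P. falciparum strains inside erythrocytes is exposed to compounds for three days, then a DNA-binding dye reports the amount of parasite DNA. Each compound was titrated across a series from about 0.000037 to 29 µM. The number is the fitted AC50, the concentration giving a half-maximal change in signal; a lower value means higher potency, whether the curve shows a decrease or an increase. Calls follow the curve class and fit quality: every row here is inconclusive, covering signal-raising curves and weak, poorly fitted, partial or highest-dose-only inhibition curves.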

Values are in µM. Every entry below has the call inconclusive. Only part of the assay is shown, chiefly results filed as inconclusive. Potencies fitted to partial, single-point or poorly fitting curves are rough.

With Oc1c(I)cc(I)c2cccnc12 [CP325] the assay gave Potency 19.01 µM (inhibitor, single point). Oc1c(I)cc(I)c2cccnc12 [CP237] read Potency 12.59 µM (inhibitor, single point). Oc1c(I)cc(I)c2cccnc12 [CP201] read Potency 16.94 µM (inhibitor, single point). For Oc1c(I)cc(I)c2cccnc12 [HB3] the result was Potency 17.78 µM (inhibitor, single point). With Oc1c(I)cc(I)c2cccnc12 [CP203] the assay gave Potency 19.01 µM (inhibitor, single point). Oc1c(I)cc(I)c2cccnc12 [ATS189] gave Potency 17.78 µM (inhibitor, single point). With Oc1c(I)cc(I)c2cccnc12 [CP297] the assay gave Potency 15.1 µM (inhibitor, single point).

For Oc1c(I)cc(I)c2cccnc12 [ATS95] the result was Potency 17.78 µM (inhibitor, single point). With Oc1c(I)cc(I)c2cccnc12 [CP256] the assay gave Potency 17.78 µM (inhibitor, single point). With Oc1c(I)cc(I)c2cccnc12 [CP269] the assay gave Potency 19.01 µM (inhibitor, single point). With Oc1c(I)cc(I)c2cccnc12 [CP286] the assay gave Potency 17.78 µM (inhibitor, single point). Result for Oc1c(I)cc(I)c2cccnc12 [CP250] was Potency 17.78 µM (inhibitor, single point). With Oc1c(I)cc(I)c2cccnc12 [CP247] the assay gave Potency 17.78 µM (inhibitor, single point). For Oc1c(I)cc(I)c2cccnc12 [P93_24] the result was Potency 17.78 µM (inhibitor, single point).

Oc1c(I)cc(I)c2cccnc12 [CP315] gave Potency 21.33 µM (inhibitor, single point). For Oc1c(I)cc(I)c2cccnc12 [CP291] the result was Potency 19.01 µM (inhibitor, single point). For Oc1c(I)cc(I)c2cccnc12 [Dd2] the result was Potency 17.78 µM (inhibitor, single point). Oc1c(I)cc(I)c2cccnc12 [CP191] gave Potency 17.78 µM (inhibitor, single point). Result for Oc1c(I)cc(I)c2cccnc12 [TAB165] was Potency 12.59 µM (inhibitor, single point). Oc1c(I)cc(I)c2cccnc12 [DFO2036] gave Potency 14.13 µM (inhibitor, single point). For Oc1c(I)cc(I)c2cccnc12 [AS120] the result was Potency 12.59 µM (inhibitor, single point).

Result for Oc1c(I)cc(I)c2cccnc12 [CP238] was Potency 15.85 µM (inhibitor, single point). Oc1c(I)cc(I)c2cccnc12 [CP260] read Potency 17.78 µM (inhibitor, single point). Oc1c(I)cc(I)c2cccnc12 [CP192] gave Potency 19.01 µM (inhibitor, single point). With Oc1c(I)cc(I)c2cccnc12 [CP266] the assay gave Potency 15.1 µM (inhibitor, single point).

Repeated from the top, 2 entries:

Oc1c(I)cc(I)c2cccnc12 [CP325] gave Potency 19.01 µM (inhibitor, single point).
Oc1c(I)cc(I)c2cccnc12 [CP237] gave Potency 12.59 µM (inhibitor, single point).